{"source": "PubChem BioAssay AID602196 (INSERM, 2012)", "assay": "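Modifiers of cisplatin sensitivity in A549 cells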", "system": "human A549 lung cancer cells", "knock-down reagent": "siRNA pair against human genes", "timing": "48 h transfection before cisplatin; time from cisplatin to read-out not stated", "challenge": "cisplatin at a dose killing half of control-siRNA cells; exact dose and duration not given", "read-out": "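Shift in cisplatin death relative to control siRNA, from -50 (all cells die) to +50 (no cells die); siRNAs harmful on their own scored 0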", "direction": "two-siRNA summed score (-2 to +2): higher = both siRNAs protect from cisplatin killing; -2 means both sensitise; mean protection from cisplatin (shift in death): higher = protection from cisplatin killing", "hit rule": "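Each siRNA scores 0 if harmful alone by LDH or WST-1, otherwise +1 if it reduces and -1 if it increases cisplatin killing; a gene is active when both siRNAs agree (sum +2 or -2)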", "meaning of the calls": "active = both siRNAs shift cisplatin killing the same way; inactive = no consistent shift, or siRNA harmful alone", "note": "Here is one part, drawn at random, of about 23,000 deposited reagents. Over the whole deposit, 455 (2%) got an active call. 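Active includes both protection and sensitisation; some change values fall well beyond the stated -50 to +50 range.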 Further read-outs or replicates are left out here. Not given: the amount of reagent."}
{"gene": "WDR83OS (WD repeat domain 83 opposite strand)", "two-siRNA summed score (-2 to +2)": 0, "mean protection from cisplatin (shift in death) (%)": 4.8, "Call": "inactive"}
{"gene": "SOCS2 (suppressor of cytokine signaling 2)", "two-siRNA summed score (-2 to +2)": 0, "mean protection from cisplatin (shift in death) (%)": -5.9, "Call": "inactive"}
{"gene": "IRF6 (interferon regulatory factor 6)", "two-siRNA summed score (-2 to +2)": 0, "mean protection from cisplatin (shift in death) (%)": 7.4, "Call": "inactive"}
{"gene": "TAF11L1", "two-siRNA summed score (-2 to +2)": 1, "mean protection from cisplatin (shift in death) (%)": 8.3, "Call": "inactive"}
{"gene": "LOC442213", "two-siRNA summed score (-2 to +2)": 0, "mean protection from cisplatin (shift in death) (%)": 6.5, "Call": "inactive"}
{"gene": "TSGA10 (testis specific 10)", "two-siRNA summed score (-2 to +2)": 1, "mean protection from cisplatin (shift in death) (%)": 6.9, "Call": "inactive"}
{"gene": "GPR152 (G protein-coupled receptor 152)", "two-siRNA summed score (-2 to +2)": 0, "mean protection from cisplatin (shift in death) (%)": -14.8, "Call": "inactive"}
{"gene": "LOC442143", "two-siRNA summed score (-2 to +2)": 0, "mean protection from cisplatin (shift in death) (%)": 0.3, "Call": "inactive"}
{"gene": "TACR3 (tachykinin receptor 3)", "two-siRNA summed score (-2 to +2)": -1, "mean protection from cisplatin (shift in death) (%)": -4.2, "Call": "inactive"}
{"gene": "PIGP (phosphatidylinositol glycan anchor biosynthesis class P)", "two-siRNA summed score (-2 to +2)": 0, "mean protection from cisplatin (shift in death) (%)": 4.1, "Call": "inactive"}
{"gene": "FKBP1C (FKBP prolyl isomerase family member 1C)", "two-siRNA summed score (-2 to +2)": 0, "mean protection from cisplatin (shift in death) (%)": -0.6, "Call": "inactive"}
{"gene": "ASPH (aspartate beta-hydroxylase)", "two-siRNA summed score (-2 to +2)": 0, "mean protection from cisplatin (shift in death) (%)": 3.6, "Call": "inactive"}
{"gene": "SHCBP1L (SHC binding and spindle associated 1 like)", "two-siRNA summed score (-2 to +2)": 0, "mean protection from cisplatin (shift in death) (%)": 4, "Call": "inactive"}

Copied from above, 2 entries:
{"gene": "PIGP (phosphatidylinositol glycan anchor biosynthesis class P)", "two-siRNA summed score (-2 to +2)": 0, "mean protection from cisplatin (shift in death) (%)": 4.1, "Call": "inactive"}
{"gene": "FKBP1C (FKBP prolyl isomerase family member 1C)", "two-siRNA summed score (-2 to +2)": 0, "mean protection from cisplatin (shift in death) (%)": -0.6, "Call": "inactive"}

The listing continues:
{"gene": "HSF1 (heat shock transcription factor 1)", "two-siRNA summed score (-2 to +2)": 0, "mean protection from cisplatin (shift in death) (%)": 10.7, "Call": "inactive"}
{"gene": "KIFC3 (kinesin family member C3)", "two-siRNA summed score (-2 to +2)": -1, "mean protection from cisplatin (shift in death) (%)": -14, "Call": "inactive"}
{"gene": "CFTR (CF transmembrane conductance regulator)", "two-siRNA summed score (-2 to +2)": -1, "mean protection from cisplatin (shift in death) (%)": -14.1, "Call": "inactive"}
{"gene": "LOC402253", "two-siRNA summed score (-2 to +2)": 1, "mean protection from cisplatin (shift in death) (%)": 7.3, "Call": "inactive"}
{"gene": "CHCHD5 (coiled-coil-helix-coiled-coil-helix domain containing 5)", "two-siRNA summed score (-2 to +2)": 0, "mean protection from cisplatin (shift in death) (%)": 22.8, "Call": "inactive"}
{"gene": "EID2B (EP300 interacting inhibitor of differentiation 2B)", "two-siRNA summed score (-2 to +2)": 0, "mean protection from cisplatin (shift in death) (%)": 1.6, "Call": "inactive"}
{"gene": "STXBP3 (syntaxin binding protein 3)", "two-siRNA summed score (-2 to +2)": 1, "mean protection from cisplatin (shift in death) (%)": 13.1, "Call": "inactive"}
{"gene": "CDK5 (cyclin dependent kinase 5)", "two-siRNA summed score (-2 to +2)": 0, "mean protection from cisplatin (shift in death) (%)": 1.9, "Call": "inactive"}
{"gene": "MYOZ1 (myozenin 1)", "two-siRNA summed score (-2 to +2)": 0, "mean protection from cisplatin (shift in death) (%)": -5.5, "Call": "inactive"}
{"gene": "CAPN10 (calpain 10)", "two-siRNA summed score (-2 to +2)": 0, "mean protection from cisplatin (shift in death) (%)": 6.3, "Call": "inactive"}
{"gene": "FTH1 (ferritin heavy chain 1)", "two-siRNA summed score (-2 to +2)": -1, "mean protection from cisplatin (shift in death) (%)": -10.2, "Call": "inactive"}
{"gene": "SELENBP1 (selenium binding protein 1)", "two-siRNA summed score (-2 to +2)": -1, "mean protection from cisplatin (shift in death) (%)": -7.2, "Call": "inactive"}
{"gene": "KRT33A (keratin 33A)", "two-siRNA summed score (-2 to +2)": 0, "mean protection from cisplatin (shift in death) (%)": 17, "Call": "inactive"}
{"gene": "RBMX (RNA binding motif protein X-linked)", "two-siRNA summed score (-2 to +2)": 0, "mean protection from cisplatin (shift in death) (%)": 6.1, "Call": "inactive"}
{"gene": "NT5C (5', 3'-nucleotidase, cytosolic)", "two-siRNA summed score (-2 to +2)": 0, "mean protection from cisplatin (shift in death) (%)": 4.9, "Call": "inactive"}
{"gene": "LOC440065", "two-siRNA summed score (-2 to +2)": 1, "mean protection from cisplatin (shift in death) (%)": 28.2, "Call": "inactive"}
{"gene": "LOC441269", "two-siRNA summed score (-2 to +2)": 0, "mean protection from cisplatin (shift in death) (%)": 3.6, "Call": "inactive"}
{"gene": "LOC388283", "two-siRNA summed score (-2 to +2)": 0, "mean protection from cisplatin (shift in death) (%)": 9.5, "Call": "inactive"}
